Measurements taken from the supplement of paper PMC10849652.
Some of the results follow.

Amino acid sequences for entries named in this document (tags omitted). A change or cut given only in a name is not applied to a line headed by its entry.
UniProt Q99757: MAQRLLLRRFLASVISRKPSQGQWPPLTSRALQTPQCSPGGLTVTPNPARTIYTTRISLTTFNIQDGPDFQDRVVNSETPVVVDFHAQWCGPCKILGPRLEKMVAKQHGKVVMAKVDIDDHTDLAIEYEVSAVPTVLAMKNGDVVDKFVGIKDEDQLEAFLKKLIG
UniProt P68036, whole entry, looked up: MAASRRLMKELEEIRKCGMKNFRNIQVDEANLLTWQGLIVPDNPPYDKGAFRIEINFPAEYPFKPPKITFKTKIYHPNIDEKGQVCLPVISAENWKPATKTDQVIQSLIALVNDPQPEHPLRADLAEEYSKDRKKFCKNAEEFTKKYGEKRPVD
UniProt Q712K3: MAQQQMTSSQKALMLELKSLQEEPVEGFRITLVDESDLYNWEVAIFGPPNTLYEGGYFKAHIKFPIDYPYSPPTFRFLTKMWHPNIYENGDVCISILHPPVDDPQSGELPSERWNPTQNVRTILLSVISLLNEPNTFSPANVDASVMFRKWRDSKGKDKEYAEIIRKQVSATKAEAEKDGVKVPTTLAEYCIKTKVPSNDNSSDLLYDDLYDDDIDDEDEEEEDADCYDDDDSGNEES
UniProt P83876: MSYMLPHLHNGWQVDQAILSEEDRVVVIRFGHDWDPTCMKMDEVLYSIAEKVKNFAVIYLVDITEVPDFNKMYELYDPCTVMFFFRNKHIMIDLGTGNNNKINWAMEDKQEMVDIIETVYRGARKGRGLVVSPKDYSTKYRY
UniProt Q16881, whole entry, looked up: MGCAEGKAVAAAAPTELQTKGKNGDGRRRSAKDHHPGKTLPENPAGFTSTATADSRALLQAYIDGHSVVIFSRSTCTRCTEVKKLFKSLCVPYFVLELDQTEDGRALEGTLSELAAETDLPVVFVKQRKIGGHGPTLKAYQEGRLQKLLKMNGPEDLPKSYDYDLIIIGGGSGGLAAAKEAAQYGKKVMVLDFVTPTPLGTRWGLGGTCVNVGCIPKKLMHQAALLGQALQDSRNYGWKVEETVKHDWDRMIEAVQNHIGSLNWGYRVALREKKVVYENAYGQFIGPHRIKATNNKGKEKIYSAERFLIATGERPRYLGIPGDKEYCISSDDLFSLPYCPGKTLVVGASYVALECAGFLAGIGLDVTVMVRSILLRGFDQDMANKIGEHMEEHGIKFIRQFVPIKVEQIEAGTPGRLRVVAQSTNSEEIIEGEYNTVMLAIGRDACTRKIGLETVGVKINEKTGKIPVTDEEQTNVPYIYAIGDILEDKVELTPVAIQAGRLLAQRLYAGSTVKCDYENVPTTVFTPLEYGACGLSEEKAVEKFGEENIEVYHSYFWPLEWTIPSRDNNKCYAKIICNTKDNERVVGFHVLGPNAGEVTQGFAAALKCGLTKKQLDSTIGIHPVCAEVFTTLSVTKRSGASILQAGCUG
UniProt Q7Z7E8: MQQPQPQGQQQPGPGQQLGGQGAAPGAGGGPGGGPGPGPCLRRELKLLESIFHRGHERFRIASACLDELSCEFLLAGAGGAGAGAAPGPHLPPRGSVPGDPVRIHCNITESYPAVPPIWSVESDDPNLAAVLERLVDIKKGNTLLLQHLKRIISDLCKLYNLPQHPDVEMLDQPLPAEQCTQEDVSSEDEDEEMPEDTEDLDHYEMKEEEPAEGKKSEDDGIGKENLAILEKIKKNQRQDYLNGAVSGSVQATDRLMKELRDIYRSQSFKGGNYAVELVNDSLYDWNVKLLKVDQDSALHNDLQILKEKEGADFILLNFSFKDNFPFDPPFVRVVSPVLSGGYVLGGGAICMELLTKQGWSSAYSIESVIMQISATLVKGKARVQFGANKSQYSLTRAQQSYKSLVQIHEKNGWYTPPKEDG
UniProt P23258, whole entry, looked up: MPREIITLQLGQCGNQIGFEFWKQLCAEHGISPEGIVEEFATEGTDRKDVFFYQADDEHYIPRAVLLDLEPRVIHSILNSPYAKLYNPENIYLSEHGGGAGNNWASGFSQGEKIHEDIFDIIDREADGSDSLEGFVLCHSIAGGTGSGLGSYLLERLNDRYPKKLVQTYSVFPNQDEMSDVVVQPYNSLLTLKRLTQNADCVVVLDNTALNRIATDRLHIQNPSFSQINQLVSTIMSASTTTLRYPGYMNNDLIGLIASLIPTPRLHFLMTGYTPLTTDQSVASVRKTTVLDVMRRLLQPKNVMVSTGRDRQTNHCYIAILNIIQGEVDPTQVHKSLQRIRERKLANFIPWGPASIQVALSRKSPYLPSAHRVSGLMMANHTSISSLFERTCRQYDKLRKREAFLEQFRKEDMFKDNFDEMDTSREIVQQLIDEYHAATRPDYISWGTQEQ
UniProt P51965: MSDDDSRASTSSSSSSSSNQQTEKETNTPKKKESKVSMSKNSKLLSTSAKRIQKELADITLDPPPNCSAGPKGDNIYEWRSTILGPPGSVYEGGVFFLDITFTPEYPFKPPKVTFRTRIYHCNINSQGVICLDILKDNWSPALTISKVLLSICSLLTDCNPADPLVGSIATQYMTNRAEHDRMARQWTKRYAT
UniProt Q9H4B7, whole entry, looked up: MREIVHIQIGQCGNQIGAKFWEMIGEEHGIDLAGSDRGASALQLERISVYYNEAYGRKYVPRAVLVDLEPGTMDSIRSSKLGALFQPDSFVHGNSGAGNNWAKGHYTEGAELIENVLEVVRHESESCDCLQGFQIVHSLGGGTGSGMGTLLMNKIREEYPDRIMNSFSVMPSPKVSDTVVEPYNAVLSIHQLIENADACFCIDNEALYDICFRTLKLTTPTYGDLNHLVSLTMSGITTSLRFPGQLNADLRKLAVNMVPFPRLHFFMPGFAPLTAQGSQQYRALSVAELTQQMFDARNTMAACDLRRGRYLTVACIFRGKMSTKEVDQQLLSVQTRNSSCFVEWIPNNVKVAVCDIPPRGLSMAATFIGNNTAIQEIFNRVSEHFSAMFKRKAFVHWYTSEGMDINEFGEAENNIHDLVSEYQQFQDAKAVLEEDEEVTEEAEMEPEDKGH
UniProt P63279, whole entry, looked up: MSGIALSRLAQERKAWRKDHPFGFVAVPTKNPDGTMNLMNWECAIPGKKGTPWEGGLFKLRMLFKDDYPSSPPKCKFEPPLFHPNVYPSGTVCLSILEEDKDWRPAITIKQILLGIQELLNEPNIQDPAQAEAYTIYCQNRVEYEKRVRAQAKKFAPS
UniProt P40222: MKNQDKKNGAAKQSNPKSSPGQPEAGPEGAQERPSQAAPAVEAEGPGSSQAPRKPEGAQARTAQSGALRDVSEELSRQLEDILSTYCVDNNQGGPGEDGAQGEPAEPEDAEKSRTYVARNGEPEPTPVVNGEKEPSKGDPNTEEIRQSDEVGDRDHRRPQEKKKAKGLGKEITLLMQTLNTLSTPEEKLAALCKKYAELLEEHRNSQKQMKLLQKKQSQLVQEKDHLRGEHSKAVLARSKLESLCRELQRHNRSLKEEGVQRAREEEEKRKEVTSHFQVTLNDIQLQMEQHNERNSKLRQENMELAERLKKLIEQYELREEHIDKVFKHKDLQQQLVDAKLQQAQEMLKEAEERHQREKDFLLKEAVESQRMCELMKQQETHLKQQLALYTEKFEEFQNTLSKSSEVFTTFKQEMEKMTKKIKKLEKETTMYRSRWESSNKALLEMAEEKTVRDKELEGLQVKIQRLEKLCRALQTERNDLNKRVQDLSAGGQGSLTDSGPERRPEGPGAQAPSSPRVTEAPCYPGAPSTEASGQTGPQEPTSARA
UniProt Q9NNW7, whole entry, looked up: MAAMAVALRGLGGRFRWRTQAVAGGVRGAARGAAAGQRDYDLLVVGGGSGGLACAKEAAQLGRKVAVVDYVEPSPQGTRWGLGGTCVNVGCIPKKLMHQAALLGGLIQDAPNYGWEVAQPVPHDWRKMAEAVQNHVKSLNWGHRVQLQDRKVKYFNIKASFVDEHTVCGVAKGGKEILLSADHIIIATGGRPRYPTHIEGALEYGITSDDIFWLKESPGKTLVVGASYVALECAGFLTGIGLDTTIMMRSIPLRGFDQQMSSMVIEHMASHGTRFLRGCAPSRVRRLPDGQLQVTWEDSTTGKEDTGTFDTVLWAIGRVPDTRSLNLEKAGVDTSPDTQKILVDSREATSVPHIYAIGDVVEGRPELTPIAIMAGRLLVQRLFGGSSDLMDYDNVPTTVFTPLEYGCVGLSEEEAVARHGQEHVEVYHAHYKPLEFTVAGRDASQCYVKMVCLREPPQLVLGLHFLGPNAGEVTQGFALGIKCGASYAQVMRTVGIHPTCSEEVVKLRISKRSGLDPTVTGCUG
UniProt Q3KQV9: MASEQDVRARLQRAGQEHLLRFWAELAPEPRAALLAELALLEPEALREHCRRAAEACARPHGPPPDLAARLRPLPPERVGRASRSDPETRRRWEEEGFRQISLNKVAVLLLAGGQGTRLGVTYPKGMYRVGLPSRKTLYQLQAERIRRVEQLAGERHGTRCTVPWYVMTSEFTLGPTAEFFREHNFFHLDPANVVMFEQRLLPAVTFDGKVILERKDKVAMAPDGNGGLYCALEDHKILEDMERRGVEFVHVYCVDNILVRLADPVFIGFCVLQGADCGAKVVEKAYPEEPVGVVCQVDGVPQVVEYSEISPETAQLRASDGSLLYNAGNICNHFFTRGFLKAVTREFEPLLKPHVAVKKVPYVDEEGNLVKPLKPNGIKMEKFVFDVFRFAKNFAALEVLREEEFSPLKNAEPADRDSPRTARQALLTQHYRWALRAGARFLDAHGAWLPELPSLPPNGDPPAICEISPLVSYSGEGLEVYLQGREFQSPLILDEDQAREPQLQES
UniProt Q5TAX3: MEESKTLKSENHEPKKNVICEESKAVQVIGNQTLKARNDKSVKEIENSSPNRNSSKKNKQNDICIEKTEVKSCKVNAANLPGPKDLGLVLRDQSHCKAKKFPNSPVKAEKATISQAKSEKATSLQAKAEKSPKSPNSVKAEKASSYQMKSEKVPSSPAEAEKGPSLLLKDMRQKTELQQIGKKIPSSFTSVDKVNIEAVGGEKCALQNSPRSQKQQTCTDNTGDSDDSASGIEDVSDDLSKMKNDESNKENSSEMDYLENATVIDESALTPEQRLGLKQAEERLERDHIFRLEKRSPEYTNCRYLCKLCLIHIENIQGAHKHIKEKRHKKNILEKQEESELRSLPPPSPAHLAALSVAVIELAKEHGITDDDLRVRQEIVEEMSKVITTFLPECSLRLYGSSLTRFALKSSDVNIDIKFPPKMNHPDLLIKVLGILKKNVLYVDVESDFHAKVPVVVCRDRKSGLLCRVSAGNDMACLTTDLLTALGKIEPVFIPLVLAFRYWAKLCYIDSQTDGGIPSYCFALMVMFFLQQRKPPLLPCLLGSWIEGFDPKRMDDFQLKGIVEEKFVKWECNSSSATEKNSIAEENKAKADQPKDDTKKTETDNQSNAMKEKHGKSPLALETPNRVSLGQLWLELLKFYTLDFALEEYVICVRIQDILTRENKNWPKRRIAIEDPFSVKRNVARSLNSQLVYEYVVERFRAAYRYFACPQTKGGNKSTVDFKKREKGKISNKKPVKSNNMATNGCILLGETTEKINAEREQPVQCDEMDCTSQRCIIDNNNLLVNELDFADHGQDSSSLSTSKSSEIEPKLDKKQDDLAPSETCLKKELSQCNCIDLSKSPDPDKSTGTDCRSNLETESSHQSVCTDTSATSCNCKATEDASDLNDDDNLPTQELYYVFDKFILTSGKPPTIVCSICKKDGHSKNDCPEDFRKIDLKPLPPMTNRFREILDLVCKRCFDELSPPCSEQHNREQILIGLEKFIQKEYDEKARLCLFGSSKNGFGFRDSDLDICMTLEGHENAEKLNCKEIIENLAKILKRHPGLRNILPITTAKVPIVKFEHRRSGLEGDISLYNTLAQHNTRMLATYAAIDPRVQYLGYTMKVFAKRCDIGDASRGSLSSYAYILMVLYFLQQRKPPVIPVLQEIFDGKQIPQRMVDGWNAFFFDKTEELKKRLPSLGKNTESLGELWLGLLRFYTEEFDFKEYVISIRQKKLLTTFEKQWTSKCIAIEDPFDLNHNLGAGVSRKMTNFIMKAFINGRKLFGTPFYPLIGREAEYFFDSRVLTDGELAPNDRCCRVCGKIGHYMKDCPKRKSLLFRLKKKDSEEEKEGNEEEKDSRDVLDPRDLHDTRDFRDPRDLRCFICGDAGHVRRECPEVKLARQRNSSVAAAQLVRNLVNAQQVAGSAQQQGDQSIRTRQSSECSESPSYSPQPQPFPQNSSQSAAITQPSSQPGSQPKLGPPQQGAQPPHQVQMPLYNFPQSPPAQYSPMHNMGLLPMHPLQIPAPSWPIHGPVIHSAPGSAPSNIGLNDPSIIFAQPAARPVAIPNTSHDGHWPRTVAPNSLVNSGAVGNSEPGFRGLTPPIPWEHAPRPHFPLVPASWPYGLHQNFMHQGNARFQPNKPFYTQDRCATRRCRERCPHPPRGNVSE
UniProt Q9BTX7: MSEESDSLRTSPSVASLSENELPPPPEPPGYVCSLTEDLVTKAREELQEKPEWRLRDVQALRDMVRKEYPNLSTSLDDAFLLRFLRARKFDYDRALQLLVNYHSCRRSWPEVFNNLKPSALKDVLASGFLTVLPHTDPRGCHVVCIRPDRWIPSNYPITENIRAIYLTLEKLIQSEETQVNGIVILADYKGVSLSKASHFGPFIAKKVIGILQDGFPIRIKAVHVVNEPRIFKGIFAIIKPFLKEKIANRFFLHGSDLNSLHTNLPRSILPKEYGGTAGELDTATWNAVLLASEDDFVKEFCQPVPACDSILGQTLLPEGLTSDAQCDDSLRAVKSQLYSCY

These targets were tested with CC1=C(C(CC(=O)N1)C2=CC=C(C=C2)C(F)(F)F)C(=O)NC3=C(C=C4C(=C3)C=NN4)F (assay: log2 fold change, soluble protein after heating vs DMSO (PISA); higher = thermal stabilisation; K562 lysate, 10 uM; active = over 0.2 and 3.5 SD of the protein, either way, in both replicates (recomputed)).
Outline: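 To prepare the extract, K562 pellets were dounce-homogenised in PBS pH 7.4 with 1 mM MgCl2, giving crude material at 1 mg/mL protein. This was treated with 10 μM compound for 30 min, then heated in aliquots for 3 min over 48°C-58°C before pooling and addition of NP-40 to 0.5% at 4°C. Centrifugation at 21,000xg for 90 min left soluble protein in the supernatant, which TMTpro 16plex LC-MS/MS quantified with equalised channel sums. Results are log-two fold changes in thermal stability compared with solvent controls, from duplicates.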

Target	log2 fold change
TXN2 (UniProt Q99757)	inactive: 0.003
TWISTNB (UniProt Q3B726)	inactive: -0.029
UBE2L3 isoform 3 (UniProt P68036)	inactive: -0.038
UBE2R2 (UniProt Q712K3)	inactive: -0.054
TXNL4A (UniProt P83876)	inactive: -0.003
TXNRD1 (UniProt Q16881)	inactive: -0.023
UBE2Q1 (UniProt Q7Z7E8)	inactive: 0.007
TUBG1 (UniProt P23258)	inactive: -0.024
UBE2E1 (UniProt P51965)	inactive: -0.091
UCHL3 (UniProt P15374)	inactive: 0.003
TUBB1 (UniProt Q9H4B7)	inactive: 0.049
UBE2I (UniProt P63279)	inactive: -0.017
TXLNA (UniProt P40222)	inactive: -0.01
TTN isoform 12 (UniProt Q8WZ42)	inactive: -0.009
UBR2 isoform 4 (UniProt Q8IWV8)	inactive: 0.004
TUBGCP2 isoform 4 (UniProt Q9BSJ2)	inactive: 0.011
TXNRD2 (UniProt Q9NNW7)	inactive: 0.008
UAP1L1 (UniProt Q3KQV9)	inactive: -0.002
TUT4 (UniProt Q5TAX3)	inactive: -0.003
UCHL5 isoform 3 (UniProt Q9Y5K5)	inactive: 0.014
TTPAL (UniProt Q9BTX7)	inactive: -0.052
UBE2B (UniProt P63146)	inactive: -0.005

An excerpt from further up, as a working copy:
Target	log2 fold change
UBE2Q1 (UniProt Q7Z7E8)	inactive: 0.007
TUBG1 (UniProt P23258)	inactive: -0.024
UBE2E1 (UniProt P51965)	inactive: -0.091
UCHL3 (UniProt P15374)	inactive: 0.003
